Measurements taken from patent publication US20170218369.

Sequences of proteins named here, by UniProt entry; tags and fusion partners are left off. Residues count along the entry.
UniProt Q15116, 25-288: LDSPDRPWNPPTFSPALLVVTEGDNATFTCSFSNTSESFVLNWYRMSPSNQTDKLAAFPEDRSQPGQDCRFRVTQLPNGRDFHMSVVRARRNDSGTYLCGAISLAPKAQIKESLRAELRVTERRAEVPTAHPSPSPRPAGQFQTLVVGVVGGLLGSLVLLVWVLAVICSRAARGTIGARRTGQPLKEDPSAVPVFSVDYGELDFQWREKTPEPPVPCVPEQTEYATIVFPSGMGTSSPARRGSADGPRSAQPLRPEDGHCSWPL

Assays:
[1] = target: PD-1 on T cells / PBMC (UniProt Q15116); assay: activity in cells; settings: protein on the cell surface, single-stranded DNA, dose not given here
[2] = target: T1, PD-1 on mouse spleen T cells (Mus musculus) (UniProt Q02242); assay: activity in cells; settings: 40 nM; increased CD8+ but not CD4+ T-cell proliferation; protein on the cell surface; single-stranded DNA
T1 sequence (looked up, limits assumed): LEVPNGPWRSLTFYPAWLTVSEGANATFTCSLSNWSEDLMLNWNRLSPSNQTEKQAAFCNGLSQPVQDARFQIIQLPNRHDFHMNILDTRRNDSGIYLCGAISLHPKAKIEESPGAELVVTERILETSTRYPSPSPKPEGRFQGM

[3] = increased T cell proliferation vs control

Sequence | functional effect of the aptamer [1, 3] | other results
TCCCTACGGCGCTAACCTTCCATCTCCCATGCTTAGTCAAACATACGCCACCGTGCTACAAC [PD7] | – | functional effect of the aptamer ([1]; strongest T cell proliferation increase, over 30% above PD-1 antibody): active; functional effect of the aptamer [2]: active
TCCCTACGGCGCTAACTCCATCTCCCTTGTAACGTTGCTTCCTCTTGCCACCGTGCTACAAC [PD9] | active | –
TCCCTACGGCGCTAACTGATCACAAGAATAACTATCCCATCTCCCTGCCACCGTGCTACAAC [PD16] | active | –
TCCCTACGGCGCTAACTCCTGCATCCATCTCCCTCTGTTAGTTTTGGCCACCGTGCTACAAC [PD6] | active | –
CCATCTCCCA [Core sequence (10 nt)] | – | functional effect of the aptamer ([1]; PBMC proliferation greater than PD-1 antibody): active
TCCCTACGGCGCTAACCATCATCGATATTGACACAACCATCTCCCTGCCACCGTGCTACAAC [PD13] | active | –
CCATCTCCCATTTTTTTTTTT [PEGylated dimer (core + polyT)] | – | functional effect of the aptamer ([1]; two copies conjugated one at each end of linear 20 kDa PEG, PBMC proliferation greater than PD-1 antibody): active
TCCCTACGGCGCTAACGTAATTCCATCTCCCTCACAGATTGCTAACGCCACCGTGCTACAAC [PD8] | active | –
TCCCTACGGCGCTAACCGTCATCGTTAATATATTGTCCTCGCATAAGCCACCGTGCTACAAC [PD24] | active | –

For some of these results: Where a protein sequence is shown, tags need not be part of it.
